These are yes or no findings as the source states them, for the method shown. In cells and extracts the contact can be indirect. Some results given as binding are weak or reduced against the parent protein; the word gives no strength.
Molecular target: Sallimus (Sls), His/EGFP-tagged protein trap sls^ZCL2144 (Drosophila (endogenous in adult fly thoraces)) (UniProt Q9I7U4)
Experiment: pull-down; extract of 50 adult thoraces (cher^CPTI1399 with sls^ZCL2144); His-tagged Sls held on Ni NTA agarose beads, 3 hours at 4°C; wash 20 mM Tris-HCl pH 8, 150 mM NaCl, 5% glycerol, 0.2% Triton X-100; Cher detected by anti-Flag blot; control: wild type thorax extract

The chains behind the UniProt entries cited, without tags or fusion partners.
UniProt Q9VEN1: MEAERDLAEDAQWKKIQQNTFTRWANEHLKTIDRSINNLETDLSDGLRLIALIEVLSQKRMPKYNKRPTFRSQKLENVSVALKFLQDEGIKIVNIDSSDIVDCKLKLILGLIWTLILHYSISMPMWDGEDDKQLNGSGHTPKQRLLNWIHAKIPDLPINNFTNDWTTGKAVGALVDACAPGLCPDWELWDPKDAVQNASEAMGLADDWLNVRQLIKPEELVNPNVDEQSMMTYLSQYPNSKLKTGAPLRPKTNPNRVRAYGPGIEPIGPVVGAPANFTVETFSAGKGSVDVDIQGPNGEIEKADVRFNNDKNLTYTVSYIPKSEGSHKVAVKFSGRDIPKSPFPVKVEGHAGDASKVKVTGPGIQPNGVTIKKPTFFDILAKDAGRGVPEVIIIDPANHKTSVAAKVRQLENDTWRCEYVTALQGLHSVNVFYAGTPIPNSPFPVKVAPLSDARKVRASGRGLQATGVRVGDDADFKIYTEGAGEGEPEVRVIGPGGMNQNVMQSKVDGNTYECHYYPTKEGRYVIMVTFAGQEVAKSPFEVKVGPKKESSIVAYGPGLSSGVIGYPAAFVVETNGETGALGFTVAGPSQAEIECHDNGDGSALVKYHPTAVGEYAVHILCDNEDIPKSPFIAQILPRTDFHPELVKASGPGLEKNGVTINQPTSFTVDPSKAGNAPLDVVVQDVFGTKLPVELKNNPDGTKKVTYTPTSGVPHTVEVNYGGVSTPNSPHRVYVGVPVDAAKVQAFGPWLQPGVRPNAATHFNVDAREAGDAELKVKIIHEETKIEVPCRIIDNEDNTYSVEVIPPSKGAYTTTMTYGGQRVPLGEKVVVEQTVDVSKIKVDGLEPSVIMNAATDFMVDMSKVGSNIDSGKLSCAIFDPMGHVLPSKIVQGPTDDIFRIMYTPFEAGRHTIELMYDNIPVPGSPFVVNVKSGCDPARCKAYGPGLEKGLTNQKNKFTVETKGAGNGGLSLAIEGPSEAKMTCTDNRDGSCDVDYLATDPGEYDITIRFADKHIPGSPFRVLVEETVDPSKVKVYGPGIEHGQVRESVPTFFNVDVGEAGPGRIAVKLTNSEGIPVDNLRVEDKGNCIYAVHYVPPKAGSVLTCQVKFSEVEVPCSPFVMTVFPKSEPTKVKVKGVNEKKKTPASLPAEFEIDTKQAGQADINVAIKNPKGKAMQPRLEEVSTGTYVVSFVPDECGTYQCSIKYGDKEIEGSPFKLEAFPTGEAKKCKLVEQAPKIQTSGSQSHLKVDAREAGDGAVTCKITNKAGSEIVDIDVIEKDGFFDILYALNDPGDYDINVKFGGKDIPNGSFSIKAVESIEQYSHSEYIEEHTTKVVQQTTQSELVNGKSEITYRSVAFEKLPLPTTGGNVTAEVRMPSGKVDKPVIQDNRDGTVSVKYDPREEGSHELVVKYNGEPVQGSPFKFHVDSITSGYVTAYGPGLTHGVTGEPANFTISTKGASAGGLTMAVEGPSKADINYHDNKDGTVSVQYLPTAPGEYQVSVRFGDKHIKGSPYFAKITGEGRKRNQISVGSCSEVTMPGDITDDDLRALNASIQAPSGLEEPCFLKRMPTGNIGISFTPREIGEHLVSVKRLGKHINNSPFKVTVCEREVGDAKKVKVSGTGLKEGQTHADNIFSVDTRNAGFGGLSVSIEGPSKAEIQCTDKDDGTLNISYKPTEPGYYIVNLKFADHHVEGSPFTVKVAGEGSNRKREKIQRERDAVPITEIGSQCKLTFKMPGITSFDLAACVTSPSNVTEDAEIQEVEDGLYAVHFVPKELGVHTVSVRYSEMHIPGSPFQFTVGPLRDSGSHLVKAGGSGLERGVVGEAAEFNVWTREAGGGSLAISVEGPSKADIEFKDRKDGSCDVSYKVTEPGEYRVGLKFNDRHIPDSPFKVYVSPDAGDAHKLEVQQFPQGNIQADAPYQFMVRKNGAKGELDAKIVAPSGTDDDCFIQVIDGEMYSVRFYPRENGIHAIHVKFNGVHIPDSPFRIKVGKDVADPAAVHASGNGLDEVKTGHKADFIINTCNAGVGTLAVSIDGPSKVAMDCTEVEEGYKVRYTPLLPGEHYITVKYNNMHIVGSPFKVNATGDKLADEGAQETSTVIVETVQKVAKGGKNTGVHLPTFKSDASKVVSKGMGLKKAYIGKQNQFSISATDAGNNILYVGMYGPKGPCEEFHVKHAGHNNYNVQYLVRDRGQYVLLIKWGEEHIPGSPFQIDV

Cheerio (Cher, filamin), Venus-Flag protein trap cher^CPTI1399 (from UniProt Q9VEN1 1-2210)
binding: binds

From PMC5521747
